Data reported in patent US20200231645A1 (Novo Nordisk, published 2020).
Residue numbers refer to the chain shown, from its start.

By UniProt entry, the sequences of proteins in these tests, tags left out. Residues count along the entry.
UniProt P43220, 24-463: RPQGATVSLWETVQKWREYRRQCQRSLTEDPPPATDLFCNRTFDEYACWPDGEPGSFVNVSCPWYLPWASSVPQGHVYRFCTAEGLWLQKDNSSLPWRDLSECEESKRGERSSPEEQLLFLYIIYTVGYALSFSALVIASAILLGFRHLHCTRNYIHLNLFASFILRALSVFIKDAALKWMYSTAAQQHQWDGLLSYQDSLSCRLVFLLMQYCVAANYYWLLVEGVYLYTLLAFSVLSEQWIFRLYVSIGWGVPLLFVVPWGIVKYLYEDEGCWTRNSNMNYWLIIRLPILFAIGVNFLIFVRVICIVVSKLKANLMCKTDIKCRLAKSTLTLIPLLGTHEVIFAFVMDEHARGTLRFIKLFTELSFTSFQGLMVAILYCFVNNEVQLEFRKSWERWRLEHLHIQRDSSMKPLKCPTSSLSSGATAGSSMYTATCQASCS

What was measured:
human GLP-1 receptor [1] = target: human GLP-1 receptor (human, UniProt P43220 24-463); assay: cell-based or functional assay
human GLP-1 receptor [2] = target: T1, human GLP-1 receptor (human, UniProt P43220 24-463); assay: 125I-GLP-1(7-36)NH2 displacement, hGLP-1R membranes, SPA, low HSA
T1 construct: whole, on cells; Isolated cell membranes, not intact cells, stood in the assay

B1: GLP-1/EGF(A) compound #28 (peptide)
peptide: HGEGTFTSDVSSYLEGQAAKEFIAWLVRGRGGQAPGQAPGTNECLDNLGGCSHVCRDLEIGYECLCPEGFQLVAQRRCE
modifications: substituent #6 on 26K of SEQ ID NO. 140
- EC50 (pM) 0% HSA (human GLP-1 receptor [1]): 203 pM
- EC50 (pM) 1% HSA (human GLP-1 receptor [1]): 4060 pM

B2: GLP-1/EGF(A) compound #34 (peptide)
peptide: B1 peptide with G2W
modifications: substituent #6 on 26K of SEQ ID NO. 141
- EC50 (pM) 0% HSA (human GLP-1 receptor [1]): 111 pM
- EC50 (pM) 1% HSA (human GLP-1 receptor [1]): 2160 pM

B3: GLP-1/EGF(A) compound #28 (peptide)
chain: B1 peptide
modifications: substituent #6 (C20 diacid-Trx-gGlu-Ado-Ado) on 26K of SEQ ID NO. 140
- IC50 (human GLP-1 receptor [2]): 29.4 nM
